Results deposited as PubChem BioAssay AID1508597 (Cure First, 2020).
Shown is an unselected part of the about 2,100 reagents, in one setting of the screen. 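Calls flag viability under 80% in either arm, not effects specific to rucaparib; the reference for percent is not stated.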 Unmarked entries are inactive. Some reagents were tested in more than one well and are listed for each. No sequences are given here. Not stated in the record: the 100% reference.

- Screen: 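Survival screen with siRNA in ovarian cancer cells derived from patients, with or without rucaparib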 (primary screen)
- System: human ovarian carcinoma lines grown from tumours: OCI-P5x (papillary serous) and OCI-C5x (clear cell)
- Knock-down reagent: siRNA pool against human genes, 1.25 pmol siRNA per well
- Time to read-out: 72 h or 96 h, depending on the cell culture
- Conditions: rucaparib 20 µM (about IC30) or vehicle, present until read-out
- Rucaparib or vehicle: Vehicle
- Cell line: OCI-P5x (serous)
- Read-out: 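Luminescent ATP-based viability assay read 72 or 96 h after transfection, depending on culture, given as normalised percent viability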
- Scale: viability, normalised: higher = more viable cells remaining
- Call rule: 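a well counts as a hit if its normalised viability is under 80 percent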
- Calls: active = viability under 80%; inactive = viability 80% or more

The opening 3 entries, to show the layout:
gene,technical replicate,"viability, normalised (%)"
DPF3,1,63.5 (active)
DPF3,2,72.6 (active)
DPF3,3,59.3 (active)

The listing, from the start:
gene,technical replicate,"viability, normalised (%)"
DPF3,1,63.5 (active)
DPF3,2,72.6 (active)
DPF3,3,59.3 (active)
LPP,1,92
LPP,2,85
LPP,3,83
TPD52,1,58.2 (active)
TPD52,2,63.6 (active)
TPD52,3,66.2 (active)
SMARCA4,1,59.7 (active)
SMARCA4,1,42.4 (active)
SMARCA4,2,49.9 (active)
SMARCA4,2,63.8 (active)
SMARCA4,3,61.5 (active)
SMARCA4,3,46.9 (active)
BRD1,1,58.1 (active)
BRD1,2,56.1 (active)
BRD1,3,76.2 (active)
PCDHB10,1,61 (active)
PCDHB10,2,68.8 (active)
PCDHB10,3,132
CHD2,1,63 (active)
CHD2,2,68.6 (active)
CHD2,3,79.1 (active)
